PubChem BioAssay AID248 (DTP/NCI, 2004)
The list shows only some results of the screen, not a fair sample: it is rich in T/C values a quarter to a half above the control, in often repeated tests (any T/C) and in doses without a T/C. Other doses and runs of a compound stand elsewhere. T/C is the treated group as % of the vehicle group. Some doses have a count of surviving animals in place of a T/C: the source files T/C as zero there, which appears to mark a toxic dose or a test without result, not a measured value. Some doses without a T/C left all or most animals alive at the check, yet need not have been tolerated: survival well below the control is almost never listed, so the zero probably covers shortened survival too. Counts of survivors are from the toxicity check (mostly the fifth day) where no day follows; animals may have died later. Schedules are NCI's codes, taken here to give the interval after Q, in days (D) or hours (H), and the number of doses after X. Some entries were tested several times; the values are given in rising order. Where survival is the endpoint, the PubChem record calls one and a half times the control and up active, and a quarter to a half above the control has no call in these data; cut-offs in other NCI protocols can differ. Additions like (4×) give the number of equal values in this list. Some T/C values carry the count of animals alive at the toxicity check (mostly the fifth day); where none is given, no animal had died by that day.

System: L1210 leukemia ip in BDF1 mice, survival T/C
Experiment: NCI In Vivo Anticancer Drug Screen. Data for tumor model L1210 Leukemia (intraperitoneal) in B6D2F1 (BDF1) mice
Settings: T/C endpoint: mean survival time, higher T/C = longer survival
[1] = dose: 32.0 mg/kg/injection, schedule: Q01DX001 (ip), vehicle: water
[2] = dose: 400.0 mg/kg/injection, schedule: Q01DX009 (ip), vehicle: saline with Tween-80
[3] = dose: 200.0 mg/kg/injection, schedule: Q01DX009 (ip), vehicle: saline

For `O=C1N[C@@H]([C@H]2CC[C@H](Cl)CN2)C(=O)N[C@H]1[C@H]1CC[C@H](Cl)CN1`, the T/C (dose: 0.25 mg/kg/injection, schedule: Q01DX001 (ip), vehicle: water, evaluated on day 5) was 103 and 106 % of control, the T/C (dose: 0.25 mg/kg/injection, schedule: Q01DX001 (ip), vehicle: water, evaluated on day 30) was 108 % of control and the T/C (dose: 0.25 mg/kg/injection, schedule: Q01DX001 (ip), vehicle: water, evaluated on day 60) was 103 and 107 % of control. For the same compound, the T/C (dose: 0.4 mg/kg/injection, schedule: Q01DX009 (ip), vehicle: saline) was 146 % of control, the T/C (dose: 0.5 mg/kg/injection, schedule: Q01DX001 (ip), vehicle: water, evaluated on day 5) was 101 and 102 % of control and the T/C (dose: 0.5 mg/kg/injection, schedule: Q01DX001 (ip), vehicle: water, evaluated on day 30) was 117 % of control. The T/C (dose: 0.5 mg/kg/injection, schedule: Q01DX001 (ip), vehicle: water, evaluated on day 60) was 101 and 103 % of control, the T/C (dose: 0.5 mg/kg/injection, schedule: Q01DX009 (ip), vehicle: saline) was 127 % of control and the T/C (dose: 0.5 mg/kg/injection, schedule: Q01DX009 (sc), vehicle: saline) was 129 % of control. The T/C (dose: 0.5 mg/kg/injection, schedule: Q03HX008 (ip), vehicle: saline) was 134 % of control, the T/C (dose: 0.8 mg/kg/injection, schedule: Q01DX009 (ip), vehicle: saline) was 146 % of control and the T/C (dose: 1.0 mg/kg/injection, schedule: Q01DX001 (ip), vehicle: water, evaluated on day 5) was 114 (2×) and 117 % of control. The T/C (dose: 1.0 mg/kg/injection, schedule: Q01DX001 (ip), vehicle: water, evaluated on day 30) was 124 % of control, the T/C (dose: 1.0 mg/kg/injection, schedule: Q01DX001 (ip), vehicle: water, evaluated on day 60) was 93, 109, 114 (2×), 118 % of control and the T/C (dose: 1.0 mg/kg/injection, schedule: Q01DX009 (ip), vehicle: saline) was 144 % of control. For the same compound, the T/C (dose: 1.0 mg/kg/injection, schedule: Q04DX003 (ip), vehicle: saline) was 143 % of control, the T/C (dose: 2.0 mg/kg/injection, schedule: Q01DX001 (ip), vehicle: water, evaluated on day 5) was 115, 121, 125 (2×), 180, 256, 262 % of control and the T/C (dose: 2.0 mg/kg/injection, schedule: Q01DX001 (ip), vehicle: water, evaluated on day 30) was 153 % of control. The T/C (dose: 2.0 mg/kg/injection, schedule: Q01DX001 (ip), vehicle: water, evaluated on day 60) was 112, 120, 121, 125, 126 (2×), 182 % of control, the T/C (dose: 2.5 mg/kg/injection, schedule: Q01DX001 (ip), vehicle: saline) was 138 and 144 % of control and the T/C (dose: 2.5 mg/kg/injection, schedule: Q01DX001 (ip), vehicle: water) was 147 % of control. For the same compound, the T/C (dose: 3.0 mg/kg/injection, schedule: Q01DX001 (ip), vehicle: saline) was 135 % of control, the T/C (dose: 4.0 mg/kg/injection, schedule: Q01DX001 (ip), vehicle: none) was 138 % of control and the T/C (dose: 4.0 mg/kg/injection, schedule: Q01DX001 (ip), vehicle: other) was 130 % of control. For the same compound, the T/C (dose: 4.0 mg/kg/injection, schedule: Q01DX001 (ip), vehicle: water, evaluated on day 5) was 136, 140, 144, 154, 198, 306 % of control (2×), the T/C (dose: 4.0 mg/kg/injection, schedule: Q01DX001 (ip), vehicle: water, evaluated on day 60) was 118, 137, 140, 141, 142, 146, 154 % of control and the T/C (dose: 4.0 mg/kg/injection, schedule: Q01DX001 (sc), vehicle: saline) was 142 % of control. The T/C (dose: 4.0 mg/kg/injection, schedule: Q01DX009 (ip), vehicle: saline, evaluated on day 30) was 106 % of control, the T/C (dose: 4.0 mg/kg/injection, schedule: Q01DX009 (ip), vehicle: saline, evaluated on day 60) was 92, 117, 229 % of control and the T/C (dose: 4.0 mg/kg/injection, schedule: Q01DX009 (ip), vehicle: water) was 140 % of control. For the same compound, the survivor count (dose: 4.0 mg/kg/injection, schedule: Q01DX009 (sc), vehicle: saline) was 10 of 10, the T/C (dose: 4.4 mg/kg/injection, schedule: Q01DX001 (ip), vehicle: saline, evaluated on day 5) was 177 % of control and the T/C (dose: 4.4 mg/kg/injection, schedule: Q01DX001 (ip), vehicle: saline, evaluated on day 60) was 148, 150, 160, 263 % of control. For the same compound, the survivor count (dose: 6.1 mg/kg/injection, schedule: Q01DX009 (ip), vehicle: saline) was 6 of 6, the T/C (dose: 6.6 mg/kg/injection, schedule: Q01DX001 (ip), vehicle: saline, evaluated on day 5) was 210 % of control and the T/C (dose: 6.6 mg/kg/injection, schedule: Q01DX001 (ip), vehicle: saline, evaluated on day 60) was 221, 224, 262 % of control. The T/C (dose: 8.0 mg/kg/injection, schedule: Q01DX001 (ip), vehicle: water, evaluated on day 5) was 116, 116 [8 of 10 alive], 158, 182, 216, 399, 408 % of control, the T/C (dose: 8.0 mg/kg/injection, schedule: Q01DX001 (ip), vehicle: water, evaluated on day 60) was 184, 212, 220, 282, 283, 400, 412 % of control and the survivor count (dose: 8.0 mg/kg/injection, schedule: Q01DX009 (oral), vehicle: saline) was 10 of 10. For the same compound, the T/C (dose: 8.0 mg/kg/injection, schedule: Q08DX002 (ip), vehicle: saline) was 145 % of control, the T/C (dose: 10.0 mg/kg/injection, schedule: Q01DX001 (ip), vehicle: saline, evaluated on day 5) was 328 % of control and the T/C (dose: 10.0 mg/kg/injection, schedule: Q01DX001 (ip), vehicle: saline, evaluated on day 30) was 175 and 273 % of control. For the same compound, the T/C (dose: 10.0 mg/kg/injection, schedule: Q01DX001 (ip), vehicle: saline, evaluated on day 60) was 232 [8 of 10 alive], 285, 440 [9 of 10 alive], 470 % of control, the T/C (dose: 16.0 mg/kg/injection, schedule: Q01DX001 (ip), vehicle: saline) was 137 % of control [8 of 10 alive] and the T/C (dose: 16.0 mg/kg/injection, schedule: Q01DX001 (ip), vehicle: water, evaluated on day 5) was 67, 72, 78, 82 (2×), 294 % of control. The T/C (dose: 16.0 mg/kg/injection, schedule: Q01DX001 (ip), vehicle: water, evaluated on day 60) was 197 [8 of 10 alive], 249 [9 of 10 alive], 257 [8 of 10 alive], 291 % of control [7 of 10 alive], the survivor count (dose: 16.0 mg/kg/injection, schedule: Q01DX001 (ip), vehicle: water) was 1 of 10, 4 of 10, 6 of 10, 10 of 10 and the T/C (dose: 16.0 mg/kg/injection, schedule: Q01DX001 (sc), vehicle: saline) was 143 % of control [9 of 10 alive]. The survivor count (dose: 16.0 mg/kg/injection, schedule: Q01DX009 (oral), vehicle: saline) was 10 of 10, the survivor count (dose: 20.0 mg/kg/injection, schedule: Q01DX001 (ip), vehicle: saline) was 1 of 6 and the survivor count (dose: 20.0 mg/kg/injection, schedule: Q01DX001 (ip), vehicle: water) was 8 of 10. For the same compound, the T/C [1] was 59, 64, 65 % of control, the survivor count [1] was 2 of 10, 4 of 10, 5 of 10 and the survivor count (dose: 32.0 mg/kg/injection, schedule: Q01DX001 (oral), vehicle: saline) was 10 of 10. For the same compound, the survivor count (dose: 1600.0 mg/kg/injection, schedule: Q01DX001 (ip), vehicle: water) was 6 of 10, the survivor count (dose: 3200.0 mg/kg/injection, schedule: Q01DX001 (ip), vehicle: water) was 7 of 10 and the T/C (dose: 250.0 micrograms/kg/injection, schedule: Q03HX024 (ip), vehicle: saline) was 134 % of control.
In the case of `CCCCCCCCC(=O)NCc1ccc(O)c(OC)c1`, the survivor count (dose: 12.5 mg/kg/injection, schedule: Q01DX009 (ip), vehicle: saline with Tween-80) is reported as 3 of 6, the survivor count (dose: 25.0 mg/kg/injection, schedule: Q01DX009 (ip), vehicle: saline with Tween-80) is reported as 0 of 6 and the survivor count (dose: 50.0 mg/kg/injection, schedule: Q01DX009 (ip), vehicle: saline with Tween-80) is reported as 0 of 6. For the same compound, the survivor count (dose: 100.0 mg/kg/injection, schedule: Q01DX009 (ip), vehicle: saline with Tween-80) was 0 of 6, the survivor count (dose: 200.0 mg/kg/injection, schedule: Q01DX009 (ip), vehicle: saline with Tween-80) was 0 of 6 and the survivor count [2] was 0 of 6.
In the case of `C=C1C(=O)OC2CCCCCCC12` (configuration not stated), the survivor count [3] is reported as 1 of 3.
For `C=CCc1cccc(CC=C)c1OCCN(CC)CC`, the survivor count [3] was 0 of 6 and the survivor count (dose: 400.0 mg/kg/injection, schedule: Q01DX009 (ip), vehicle: saline) was 0 of 6.
With `CN=C1c2ccccc2C2(c3ccccc3)C1N2C` (configuration not stated) the survivor count [2] was 2 of 6.
